These are yes or no findings as the source states them, for the method shown. Some entries that bind do so weakly or less than the wild type. Tags and fused reporters may be left off the sequences shown.
Biological target: T1, Entamoeba histolytica deoxyhypusine synthase 1 (EhDHS1) with amino-terminal His-tag, co-expressed with EhDHS2 (Entamoeba histolytica) (UniProt C4LXB8)
T1 sequence: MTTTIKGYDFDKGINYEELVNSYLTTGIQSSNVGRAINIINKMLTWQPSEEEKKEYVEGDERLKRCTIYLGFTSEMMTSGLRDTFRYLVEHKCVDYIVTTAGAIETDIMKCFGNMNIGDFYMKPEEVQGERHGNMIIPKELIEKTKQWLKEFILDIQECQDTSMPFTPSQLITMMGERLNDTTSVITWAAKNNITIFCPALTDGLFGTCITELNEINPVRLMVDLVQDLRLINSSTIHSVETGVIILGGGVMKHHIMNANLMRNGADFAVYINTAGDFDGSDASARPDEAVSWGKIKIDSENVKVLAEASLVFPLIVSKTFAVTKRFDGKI
Test: native gel or EMSA; About 10 μg of co-expressed, copurified EhDHS1/2 on a 4-16% BN-PAGE gel (NativePAGE Novex Bis-Tris); destained gel and immunoblot with anti-His and anti-S tag antibodies; both purified

binding: binds
B1: Entamoeba histolytica deoxyhypusine synthase 2 (EhDHS2) with carboxyl-terminal S-tag, co-expressed with EhDHS1 (natural protein, UniProt C4M2N7 1-336, looked up)
chain: MSITGEEFAKVTSKVLGESKEYKGEKCIGYDFDNGVDFNKVMEKMKYTGFQALNLGLCIEQVNEMRKNHAKIFLGMSSNIVSSGLREVIHYLVKNKFVDAIVVTAGGIEEDFIKTMHPTLLGDFYFKGKELYPNGYNRIGNLILPNSNYCEFEDWMDPLLLECLKEQNEHGVHWTPSKLVHKMGESINNESSIYYWAAKNNIPVFSPAITDGSIGDMIFFFSYKNEGLVLDLVQDVIKIDEMAFNAEKVGCLLVGAGIAKHHILNAMKRRGGCDYCAMLSTSIECDASDAGSEIAADRTKGFFKPECNPAKVIGDATILLPLIVASTFAQKEEPTK
notes: Deoxyhypusine synthase isotype 2 (EhDHS2) of Entamoeba histolytica, EHI_006030, XP_653426; stop codon removed to fuse the C-terminal S-tag of pETDuet; also called S-tag DHS2; EHI_006030; source: E. coli BL21 (DE3), co-expressed with EhDHS1 from pETDuet-EhDHS1/2; in lysate and copurified on Ni2+-NTA; not shown: S-tag, C-terminal, kept
